A short description of this series: general procedure: Fmoc solid-phase peptide synthesis. The following applies: whole synthesis.
Where [1] appears, read: UPLC, Acquity UPLC BEH C18, PDA 210-500 nm, 0.1% TFA in water / 0.1% TFA in MeCN.
The mark [2] stands for this setting: UPLC, Acquity UPLC BEH C18, PDA 210-500 nm, 0.1% TFA in water / 0.1% TFA in MeCN, 6TFA.
Setting [3] is: UPLC, Acquity UPLC BEH C18, PDA 210-500 nm, 0.1% TFA in water / 0.1% TFA in MeCN, 2TFA.

End groups of sequences in plain letters are not given here.

Here are results for five sequences from patent publication US20230203130A1 (Hubro Therapeutics AS, priority 2020, published 2023).

As for “KCIMKEKKSLVRLSSCVPVALMSAMTTSSSQKN (listed as Homo sapiens)”, the “crude HPLC purity” value under setting [1] was “around 75%”. In addition, the “final HPLC purity” value is given as “about 90%” under setting [1] and around 50% (UPLC, Acquity UPLC BEH C18, PDA 210-500 nm, 0.1% TFA in water / 0.1% TFA in MeCN, 7TFA). The difficulty met entry reads like this: (run 1) “Only very small amounts of the desired peptide were obtained, and analysis by UPLC found that the peptide was impure”; (run 2) “Again, only very small amounts of purified fsp5 (SEQ ID NO: 19) were obtained”.

As to “KGIMKEKKSLVRLSSCVPVALMSA (Modified peptide)”, under setting [2], the “final HPLC purity” value is on record as 97%. Regarding SSCVPVALMSAMTTSSSQKN, under setting [3], the “final HPLC purity” value turned out to be 94.8%. Same read-out and setting: in the case of SSGVPVALMSAMTTSSSQKN (Modified peptide) it was 91.9%.

In the case of “KCIMKEKKSLVRLSSCVPVALMSA (listed as Homo sapiens)”, under setting [2], the “final HPLC purity” value was 96%.
